± gives the standard deviation of the averaged measurements. The list shows a part of the results.
Compound: Nc1nc2c(ncn2[C@@H]2O[C@H](COP(=O)(O)OP(=O)(O)OP(=O)(O)O)[C@@H](O)[C@H]2O)c(=O)[nH]1 [guanosine triphosphate]
Assay: NP40-soluble protein abundance relative to vehicle (solubility fold change) (ratio); higher = more soluble protein in presence of GTP
Protocol: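 Solubility proteome profiling in Jurkat crude lysate. Lysate was treated with Mg-GTP (0.1-10 mM) for 10 min at room temperature and 3 min at 37 °C, then solubilised with 0.8% NP40 and benzonase, followed by ultracentrifugation. Proteins were quantified by TMT10 LC-MS/MS; the value is the NP40-soluble abundance relative to the NP40-processed vehicle, from 3 independent experiments.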

The chains behind the UniProt entries cited, without tags or fusion partners. Where a name states a change or a piece, a line headed by the entry shows the natural chain unless it says otherwise.
UniProt P17174: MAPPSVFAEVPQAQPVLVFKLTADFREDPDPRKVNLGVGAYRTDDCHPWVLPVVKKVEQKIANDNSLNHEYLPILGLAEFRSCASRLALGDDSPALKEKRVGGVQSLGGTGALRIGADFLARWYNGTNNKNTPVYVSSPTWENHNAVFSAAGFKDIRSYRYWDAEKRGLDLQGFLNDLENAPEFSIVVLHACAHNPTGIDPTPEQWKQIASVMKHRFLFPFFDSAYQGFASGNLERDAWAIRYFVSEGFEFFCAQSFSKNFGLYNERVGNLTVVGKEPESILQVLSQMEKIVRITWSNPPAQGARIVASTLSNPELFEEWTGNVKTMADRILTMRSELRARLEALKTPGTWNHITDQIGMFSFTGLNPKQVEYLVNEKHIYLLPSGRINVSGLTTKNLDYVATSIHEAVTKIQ
UniProt P20340: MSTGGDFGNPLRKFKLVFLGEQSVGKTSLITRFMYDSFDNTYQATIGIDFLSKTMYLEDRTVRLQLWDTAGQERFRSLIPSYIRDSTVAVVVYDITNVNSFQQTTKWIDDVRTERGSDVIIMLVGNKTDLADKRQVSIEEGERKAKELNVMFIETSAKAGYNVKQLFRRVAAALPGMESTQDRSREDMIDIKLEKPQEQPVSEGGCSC
UniProt P16615: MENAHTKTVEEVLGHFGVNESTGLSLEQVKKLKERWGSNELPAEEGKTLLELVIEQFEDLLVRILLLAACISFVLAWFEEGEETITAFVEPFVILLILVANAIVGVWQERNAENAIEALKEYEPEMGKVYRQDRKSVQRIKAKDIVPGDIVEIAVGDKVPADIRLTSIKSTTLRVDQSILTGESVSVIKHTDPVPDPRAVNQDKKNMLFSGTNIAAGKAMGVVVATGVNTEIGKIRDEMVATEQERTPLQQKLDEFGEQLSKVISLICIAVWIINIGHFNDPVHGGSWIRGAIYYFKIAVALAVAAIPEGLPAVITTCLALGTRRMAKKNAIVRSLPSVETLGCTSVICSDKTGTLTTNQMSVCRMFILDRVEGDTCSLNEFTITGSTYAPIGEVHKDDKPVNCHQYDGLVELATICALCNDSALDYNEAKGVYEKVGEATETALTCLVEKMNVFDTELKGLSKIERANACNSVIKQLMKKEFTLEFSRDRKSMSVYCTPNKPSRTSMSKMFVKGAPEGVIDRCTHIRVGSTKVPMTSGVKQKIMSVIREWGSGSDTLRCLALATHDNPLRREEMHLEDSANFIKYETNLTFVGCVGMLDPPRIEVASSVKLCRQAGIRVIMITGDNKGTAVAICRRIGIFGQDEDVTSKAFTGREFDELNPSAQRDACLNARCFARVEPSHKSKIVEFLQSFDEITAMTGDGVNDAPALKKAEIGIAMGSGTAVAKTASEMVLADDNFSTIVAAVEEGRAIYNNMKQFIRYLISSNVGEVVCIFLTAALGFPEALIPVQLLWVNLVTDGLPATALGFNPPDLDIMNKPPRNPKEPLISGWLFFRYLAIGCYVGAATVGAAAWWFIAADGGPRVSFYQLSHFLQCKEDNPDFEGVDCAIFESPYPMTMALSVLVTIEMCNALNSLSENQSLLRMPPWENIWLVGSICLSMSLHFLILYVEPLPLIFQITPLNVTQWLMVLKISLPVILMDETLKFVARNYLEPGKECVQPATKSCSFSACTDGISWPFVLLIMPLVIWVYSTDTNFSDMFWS
UniProt P19784, whole entry, looked up: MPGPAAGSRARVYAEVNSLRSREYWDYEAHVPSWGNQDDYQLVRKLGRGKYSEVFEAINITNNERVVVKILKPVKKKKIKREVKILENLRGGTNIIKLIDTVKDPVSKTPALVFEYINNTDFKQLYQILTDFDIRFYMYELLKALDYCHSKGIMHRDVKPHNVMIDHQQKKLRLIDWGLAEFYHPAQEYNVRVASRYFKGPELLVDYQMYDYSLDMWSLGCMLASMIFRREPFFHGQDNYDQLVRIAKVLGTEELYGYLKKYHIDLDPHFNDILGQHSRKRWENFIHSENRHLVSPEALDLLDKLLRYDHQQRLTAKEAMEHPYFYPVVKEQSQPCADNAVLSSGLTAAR

Target	NP40-soluble protein abundance (concentration: 0.1mM)	NP40-soluble protein abundance (concentration: 0.5mM)	NP40-soluble protein abundance (concentration: 1mM)	NP40-soluble protein abundance (concentration: 2mM)	NP40-soluble protein abundance (concentration: 4mM)	NP40-soluble protein abundance (concentration: 6mM)	NP40-soluble protein abundance (concentration: 8mM)	NP40-soluble protein abundance (concentration: 10mM)
GOT1 (UniProt P17174)	0.969 ± 0.033	0.9833 ± 0.0066	0.916 ± 0.035	0.913 ± 0.038	0.878 ± 0.043	0.892 ± 0.037	0.865 ± 0.044	0.876 ± 0.033
UniProt P15927-2	0.95 ± 0.06	0.893 ± 0.048	0.956 ± 0.052	0.907 ± 0.099	0.905 ± 0.052	0.893 ± 0.073	0.901 ± 0.066	0.883 ± 0.057
UniProt P20340 and related entries	1.02 ± 0.04	0.998 ± 0.034	0.935 ± 0.032	0.922 ± 0.065	0.898 ± 0.08	0.891 ± 0.069	0.865 ± 0.073	0.847 ± 0.13
ATP2A2 (UniProt P16615)	1.02 ± 0.017	1.02 ± 0.037	0.956 ± 0.022	0.969 ± 0.018	0.964 ± 0.035	0.952 ± 0.036	0.951 ± 0.026	0.911 ± 0.023
UniProt P19784	1.03 ± 0.032	1.05 ± 0.064	0.963 ± 0.047	1.01 ± 0.097	1.01 ± 0.065	1.01 ± 0.075	1.01 ± 0.043	0.994 ± 0.076
